Assay results reported in PMC9585242.
Read-outs that look alike come from different tables or passages of the source. These are yes or no findings as the source states them, for the method shown. In cells and extracts the contact can be indirect. Here binding means that the protein was enriched with, or labelled near, the bait; the list need not be complete. For some assays here: A no says only that the protein was not detected with the bait.

Protein sequences, listed by entry. Tags and fused reporters are not part of them. Lines headed by an entry give the natural chain unless they say otherwise; changes in a name come on top.
UniProt Q383M3: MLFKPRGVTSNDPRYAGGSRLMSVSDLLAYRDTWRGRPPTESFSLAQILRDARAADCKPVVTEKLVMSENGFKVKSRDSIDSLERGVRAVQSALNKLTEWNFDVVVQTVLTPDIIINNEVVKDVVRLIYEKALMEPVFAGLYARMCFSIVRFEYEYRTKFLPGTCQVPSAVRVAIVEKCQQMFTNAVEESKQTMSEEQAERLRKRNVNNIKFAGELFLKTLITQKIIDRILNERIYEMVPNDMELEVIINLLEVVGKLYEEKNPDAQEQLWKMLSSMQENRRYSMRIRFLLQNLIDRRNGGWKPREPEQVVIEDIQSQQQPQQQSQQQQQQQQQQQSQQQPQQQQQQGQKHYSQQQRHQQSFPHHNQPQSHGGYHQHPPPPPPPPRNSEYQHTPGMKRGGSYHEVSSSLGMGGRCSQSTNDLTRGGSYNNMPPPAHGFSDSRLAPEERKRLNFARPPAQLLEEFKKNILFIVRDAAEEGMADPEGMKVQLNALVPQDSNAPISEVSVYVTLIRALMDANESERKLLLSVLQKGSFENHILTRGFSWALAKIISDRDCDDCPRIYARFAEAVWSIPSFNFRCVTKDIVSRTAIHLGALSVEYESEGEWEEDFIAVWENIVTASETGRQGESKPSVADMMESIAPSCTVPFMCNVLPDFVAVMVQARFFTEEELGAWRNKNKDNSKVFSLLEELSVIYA
UniProt Q38F38: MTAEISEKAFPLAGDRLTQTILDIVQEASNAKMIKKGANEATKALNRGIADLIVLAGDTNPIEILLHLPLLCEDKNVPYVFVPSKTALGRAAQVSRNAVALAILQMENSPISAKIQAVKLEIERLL
UniProt Q38EY6: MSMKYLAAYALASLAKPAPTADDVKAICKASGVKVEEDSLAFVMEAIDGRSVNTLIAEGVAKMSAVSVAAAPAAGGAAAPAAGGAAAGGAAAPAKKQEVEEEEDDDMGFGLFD
UniProt Q57X64: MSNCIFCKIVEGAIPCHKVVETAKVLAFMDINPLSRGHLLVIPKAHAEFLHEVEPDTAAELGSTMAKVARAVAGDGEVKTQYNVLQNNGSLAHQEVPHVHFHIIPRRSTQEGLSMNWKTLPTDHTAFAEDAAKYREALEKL
UniProt Q57WT9: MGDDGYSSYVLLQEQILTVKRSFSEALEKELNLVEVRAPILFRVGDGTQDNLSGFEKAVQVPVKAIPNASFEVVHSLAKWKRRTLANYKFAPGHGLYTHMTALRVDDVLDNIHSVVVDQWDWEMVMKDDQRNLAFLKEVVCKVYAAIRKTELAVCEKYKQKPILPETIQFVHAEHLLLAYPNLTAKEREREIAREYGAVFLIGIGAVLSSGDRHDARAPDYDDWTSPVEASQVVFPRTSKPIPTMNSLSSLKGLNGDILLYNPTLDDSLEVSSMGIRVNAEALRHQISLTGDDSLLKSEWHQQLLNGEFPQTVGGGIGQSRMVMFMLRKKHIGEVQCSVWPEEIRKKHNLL
UniProt Q381R2: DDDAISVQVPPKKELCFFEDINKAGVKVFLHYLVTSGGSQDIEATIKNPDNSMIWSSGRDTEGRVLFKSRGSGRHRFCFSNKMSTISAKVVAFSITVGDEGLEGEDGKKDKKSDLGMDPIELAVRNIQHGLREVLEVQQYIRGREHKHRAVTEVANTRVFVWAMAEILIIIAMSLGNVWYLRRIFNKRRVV
UniProt Q382K8: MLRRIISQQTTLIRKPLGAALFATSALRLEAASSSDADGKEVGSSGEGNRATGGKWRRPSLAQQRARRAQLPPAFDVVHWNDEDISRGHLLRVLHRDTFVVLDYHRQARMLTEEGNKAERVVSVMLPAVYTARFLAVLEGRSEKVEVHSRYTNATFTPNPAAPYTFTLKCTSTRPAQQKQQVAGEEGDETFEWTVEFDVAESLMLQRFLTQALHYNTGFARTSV
UniProt Q57Y81: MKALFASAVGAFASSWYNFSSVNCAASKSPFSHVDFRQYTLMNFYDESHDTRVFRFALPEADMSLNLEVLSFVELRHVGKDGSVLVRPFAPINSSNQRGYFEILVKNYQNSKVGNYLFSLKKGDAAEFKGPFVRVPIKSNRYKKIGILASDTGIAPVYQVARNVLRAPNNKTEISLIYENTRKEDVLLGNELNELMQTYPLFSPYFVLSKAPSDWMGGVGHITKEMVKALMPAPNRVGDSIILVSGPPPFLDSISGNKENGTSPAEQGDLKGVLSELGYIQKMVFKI
UniProt Q38C20: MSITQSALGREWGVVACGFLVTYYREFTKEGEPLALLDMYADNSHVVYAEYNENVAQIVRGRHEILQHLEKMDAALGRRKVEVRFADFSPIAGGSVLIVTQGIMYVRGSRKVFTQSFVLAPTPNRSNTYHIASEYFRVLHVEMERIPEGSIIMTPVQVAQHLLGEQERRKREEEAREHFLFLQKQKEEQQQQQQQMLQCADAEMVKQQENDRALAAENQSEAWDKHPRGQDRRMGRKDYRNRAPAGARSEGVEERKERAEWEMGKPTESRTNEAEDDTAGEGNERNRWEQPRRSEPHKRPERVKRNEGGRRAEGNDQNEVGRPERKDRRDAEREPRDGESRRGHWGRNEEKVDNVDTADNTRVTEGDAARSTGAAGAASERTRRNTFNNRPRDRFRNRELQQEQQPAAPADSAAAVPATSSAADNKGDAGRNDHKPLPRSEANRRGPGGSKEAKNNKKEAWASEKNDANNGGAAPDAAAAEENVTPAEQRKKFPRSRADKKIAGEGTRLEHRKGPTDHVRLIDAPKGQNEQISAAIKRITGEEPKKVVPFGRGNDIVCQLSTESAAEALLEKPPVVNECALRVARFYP
UniProt Q587B9: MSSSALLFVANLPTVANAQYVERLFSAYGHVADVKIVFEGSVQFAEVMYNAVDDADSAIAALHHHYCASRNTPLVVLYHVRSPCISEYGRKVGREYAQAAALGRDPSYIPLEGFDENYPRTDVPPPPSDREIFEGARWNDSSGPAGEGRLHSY
UniProt Q57ZR2: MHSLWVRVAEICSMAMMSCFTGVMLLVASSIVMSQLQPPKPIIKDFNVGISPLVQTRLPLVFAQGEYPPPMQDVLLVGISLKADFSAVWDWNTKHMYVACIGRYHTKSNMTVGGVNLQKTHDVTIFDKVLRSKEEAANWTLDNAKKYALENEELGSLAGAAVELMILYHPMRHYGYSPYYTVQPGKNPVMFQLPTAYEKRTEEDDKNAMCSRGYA
UniProt Q57X55: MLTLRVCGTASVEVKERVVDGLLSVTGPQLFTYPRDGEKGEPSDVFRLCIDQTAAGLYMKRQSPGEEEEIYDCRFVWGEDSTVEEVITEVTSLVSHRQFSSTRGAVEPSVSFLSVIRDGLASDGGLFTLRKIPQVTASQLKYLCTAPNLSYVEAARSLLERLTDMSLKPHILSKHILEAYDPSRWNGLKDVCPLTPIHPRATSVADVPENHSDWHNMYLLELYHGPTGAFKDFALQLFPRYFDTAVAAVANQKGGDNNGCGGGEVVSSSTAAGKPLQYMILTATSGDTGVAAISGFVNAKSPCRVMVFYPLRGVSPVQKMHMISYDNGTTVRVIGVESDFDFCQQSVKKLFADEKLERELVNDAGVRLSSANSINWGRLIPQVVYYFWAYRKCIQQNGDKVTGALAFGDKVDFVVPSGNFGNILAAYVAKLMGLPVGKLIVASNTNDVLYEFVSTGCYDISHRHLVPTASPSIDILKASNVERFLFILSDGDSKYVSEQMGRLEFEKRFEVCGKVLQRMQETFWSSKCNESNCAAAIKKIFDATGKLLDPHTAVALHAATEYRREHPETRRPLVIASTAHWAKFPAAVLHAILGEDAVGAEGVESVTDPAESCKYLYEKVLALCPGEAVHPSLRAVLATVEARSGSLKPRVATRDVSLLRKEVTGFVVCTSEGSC
UniProt Q586Q9: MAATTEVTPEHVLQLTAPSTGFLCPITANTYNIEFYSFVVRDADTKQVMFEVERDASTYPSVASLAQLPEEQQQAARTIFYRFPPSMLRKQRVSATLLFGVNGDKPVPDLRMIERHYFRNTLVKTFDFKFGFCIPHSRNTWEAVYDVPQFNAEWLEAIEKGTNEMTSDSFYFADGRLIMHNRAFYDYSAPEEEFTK
UniProt Q586I4: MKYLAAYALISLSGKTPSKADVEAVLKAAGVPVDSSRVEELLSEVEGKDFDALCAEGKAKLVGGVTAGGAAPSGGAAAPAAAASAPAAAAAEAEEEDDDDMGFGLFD
UniProt Q38CD0: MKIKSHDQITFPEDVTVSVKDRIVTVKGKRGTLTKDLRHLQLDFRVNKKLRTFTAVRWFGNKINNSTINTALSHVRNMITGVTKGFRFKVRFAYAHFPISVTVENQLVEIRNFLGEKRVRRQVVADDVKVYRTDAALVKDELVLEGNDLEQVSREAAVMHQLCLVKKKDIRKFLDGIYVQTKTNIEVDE
UniProt Q385T6: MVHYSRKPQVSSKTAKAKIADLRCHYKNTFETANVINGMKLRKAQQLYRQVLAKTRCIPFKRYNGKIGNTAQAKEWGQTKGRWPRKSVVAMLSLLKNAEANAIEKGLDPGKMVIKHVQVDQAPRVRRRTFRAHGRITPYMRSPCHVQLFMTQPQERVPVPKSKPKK
UniProt Q57XJ5: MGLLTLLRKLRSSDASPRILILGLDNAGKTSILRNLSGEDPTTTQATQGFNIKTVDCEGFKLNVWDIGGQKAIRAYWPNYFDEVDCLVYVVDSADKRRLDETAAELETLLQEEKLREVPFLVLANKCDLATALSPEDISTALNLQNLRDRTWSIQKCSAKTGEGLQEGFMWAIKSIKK
UniProt Q38BZ2: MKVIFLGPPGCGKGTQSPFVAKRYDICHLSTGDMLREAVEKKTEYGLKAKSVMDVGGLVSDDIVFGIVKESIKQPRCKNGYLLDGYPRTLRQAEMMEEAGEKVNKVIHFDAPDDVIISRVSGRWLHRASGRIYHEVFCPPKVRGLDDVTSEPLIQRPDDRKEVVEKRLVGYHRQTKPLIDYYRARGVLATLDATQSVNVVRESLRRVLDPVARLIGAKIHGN
UniProt Q382H2: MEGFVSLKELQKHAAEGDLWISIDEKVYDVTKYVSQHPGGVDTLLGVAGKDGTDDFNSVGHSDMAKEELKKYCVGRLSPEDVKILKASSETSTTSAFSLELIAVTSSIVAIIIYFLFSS
UniProt Q57VT0: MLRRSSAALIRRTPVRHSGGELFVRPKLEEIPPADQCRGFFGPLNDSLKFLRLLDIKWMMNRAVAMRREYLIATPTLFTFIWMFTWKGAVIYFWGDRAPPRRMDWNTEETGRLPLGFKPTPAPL
UniProt Q57WS0: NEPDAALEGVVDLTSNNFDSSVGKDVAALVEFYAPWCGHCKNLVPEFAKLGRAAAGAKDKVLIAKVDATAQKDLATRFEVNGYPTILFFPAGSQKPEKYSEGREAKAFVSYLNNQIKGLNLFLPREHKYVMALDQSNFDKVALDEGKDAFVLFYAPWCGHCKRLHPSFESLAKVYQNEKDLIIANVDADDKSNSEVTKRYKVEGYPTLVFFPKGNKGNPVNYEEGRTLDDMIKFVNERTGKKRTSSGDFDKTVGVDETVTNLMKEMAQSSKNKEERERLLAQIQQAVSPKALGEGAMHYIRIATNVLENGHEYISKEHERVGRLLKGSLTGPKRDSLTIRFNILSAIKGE
UniProt Q384D1: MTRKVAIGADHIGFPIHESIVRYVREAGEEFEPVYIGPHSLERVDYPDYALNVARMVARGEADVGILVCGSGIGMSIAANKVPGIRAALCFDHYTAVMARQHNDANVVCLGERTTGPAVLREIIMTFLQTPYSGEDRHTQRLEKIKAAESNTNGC
UniProt Q57X68: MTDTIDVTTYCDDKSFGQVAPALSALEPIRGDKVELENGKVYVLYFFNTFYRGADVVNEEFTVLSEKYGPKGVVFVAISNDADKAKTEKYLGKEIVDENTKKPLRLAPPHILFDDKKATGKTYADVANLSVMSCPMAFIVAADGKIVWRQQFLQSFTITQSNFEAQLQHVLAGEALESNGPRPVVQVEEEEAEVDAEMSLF
UniProt Q38B27: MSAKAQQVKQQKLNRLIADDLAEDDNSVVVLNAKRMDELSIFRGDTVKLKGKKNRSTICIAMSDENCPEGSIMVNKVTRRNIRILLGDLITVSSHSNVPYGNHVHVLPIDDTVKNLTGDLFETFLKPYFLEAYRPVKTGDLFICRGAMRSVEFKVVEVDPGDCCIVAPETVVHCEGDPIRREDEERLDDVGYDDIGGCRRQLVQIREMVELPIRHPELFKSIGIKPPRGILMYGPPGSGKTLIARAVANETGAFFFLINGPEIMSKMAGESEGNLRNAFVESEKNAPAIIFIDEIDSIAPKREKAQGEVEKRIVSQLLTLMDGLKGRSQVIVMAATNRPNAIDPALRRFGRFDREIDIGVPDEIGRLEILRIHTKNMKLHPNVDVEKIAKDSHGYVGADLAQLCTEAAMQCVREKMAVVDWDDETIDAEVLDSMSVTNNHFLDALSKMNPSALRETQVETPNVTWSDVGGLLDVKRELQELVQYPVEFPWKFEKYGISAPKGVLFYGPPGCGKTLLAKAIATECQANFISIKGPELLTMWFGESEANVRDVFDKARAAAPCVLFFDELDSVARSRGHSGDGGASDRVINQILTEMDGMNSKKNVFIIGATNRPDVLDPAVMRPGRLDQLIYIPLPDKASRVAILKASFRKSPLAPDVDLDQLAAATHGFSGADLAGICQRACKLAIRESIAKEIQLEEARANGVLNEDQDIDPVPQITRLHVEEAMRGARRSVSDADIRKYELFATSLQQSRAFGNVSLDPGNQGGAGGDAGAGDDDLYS

Tests used:
Assay in all cases: affinity purification with mass spectrometry; eYFP-tagged bait captured from lysate of cryogenically ground T. brucei procyclic cells (100 mM KCl, 1 mM MgCl2, 50 mM Hepes pH 7.2, 5% glycerol; no detergent, no RNase added) on llama anti-GFP nanobody (LaG-16-G4S-LaG-2) Dynabeads; biological triplicates; enrichment against the eYFP-DRBD4 control, or pairwise between the two eIF4E and the two eIF4G baits
[1] = molecular target: Eukaryotic translation initiation factor 4G type 4 (Trypanosoma brucei (endogenous in procyclic Lister 427 cells)) (UniProt Q383M3)
[2] = molecular target: Eukaryotic translation initiation factor 4E-4 (Trypanosoma brucei (endogenous in procyclic Lister 427 cells)) (UniProt Q585M4)
[3] = molecular target: Eukaryotic translation initiation factor 4 gamma 3 (Trypanosoma brucei (endogenous in procyclic Lister 427 cells)) (UniProt Q57UX0)
[4] = molecular target: Eukaryotic translation initiation factor 4 gamma 3 (Trypanosoma brucei (endogenous in procyclic Lister 427 cells)) (UniProt Q57UX0); remark: listed apart in the source

| Molecule | binding [1] | binding [2] | binding [3] | further results |
| --- | --- | --- | --- | --- |
| 40S ribosomal protein S6 (from UniProt Q38F38) | binds | – | – | – |
| 60S acidic ribosomal protein P2 (Tb927.9.5690) (from UniProt Q38EY6) | binds | – | – | – |
| Adenosine 5-monophosphoramidase (from UniProt Q57X64) (enzyme) | – | – | binds | – |
| Asparagine synthetase a (from UniProt Q57WT9) (enzyme) | – | binds | – | – |
| DEAD-Box helicase DBP2B (from UniProt Q580H2) | binds | – | – | – |
| Emp24-related protein 1 (from UniProt Q381R2) | – | binds | binds | – |
| Eukaryotic translation initiation factor 4E-3 (from UniProt Q383A4) | binds | no binding | – | – |
| Guide RNA binding protein 25 (from UniProt Q382K8) | – | binds | – | – |
| Intraflagellar transport protein 27 (from UniProt Q580S0) | – | binds | – | – |
| NADH-cytochrome b5 reductase (from UniProt Q57Y81) (enzyme) | – | – | binds | – |
| Nuclear transport factor 2 (NTF2) domain protein (from UniProt Q38C20) | binds | – | – | – |
| RNA-binding protein 17 (from UniProt Q587B9) | binds | – | binds | – |
| Signal peptidase subunit (from UniProt Q57ZR2) | – | – | binds | – |
| Threonine synthase (from UniProt Q57X55) (enzyme) | binds | – | – | – |
| UNC119 (from UniProt Q586Q9) | – | – | binds | – |
| Eukaryotic translation initiation factor 3 subunit E (protein, UniProt Q383C1 1-413) MTEMLSCLVPYLDKHLVLGLLYFYDDQGVDVGDALRFVQATTALTPEGEVSLEQENKIRETAERARPALDMFFEQNVSDNCTYQLCLTESRIDELRGKGELSRGFLEKEGITPKVMTAVMDLAFLYYDAARYGDASELLSLLQCVTGYELGESKLLWGRLVCDTCSCRWPSAIAAAEKLWKQQGADGSENKSGKTTLRGDNGTSVTERVWLLHWALFPFFKGGNQYSTHLLNIVFDNKTDSIYQCVVETVCPHYLRYICAAAILNTHRRSALRRAAEMVGRIYEYSDPLTQLVREITNYRSFEDTLELLPKVSELAQGDYFLNLHADNLVENAKRLIFTQYVVTHSVVSIPYMAERLEMSAAGAEVWLADLISETKQRAKIDAVTGQMFVGSQVRSVHQTVLDRLEPVDHGRR | – | – | – | binding [4]: binds |
| Acyl carrier protein (protein, UniProt Q57WW9 1-148) MQRSQLARKFATQVGAYSLLRGRCHAVSTWKVMATQAVTIPMYLPVRFHSEGHAAGEEAGRTGQYLLNKDDVLTRVLEVVKNFEKVDASKVTPQSHFVNDLGLNSLDVVEVVFAIEQEFILDIPDHDAEKIQSITDAVEYISQNPMAK | – | – | – | binding [4]: binds |
| Proteasome subunit alpha type 1 (protein, UniProt Q38B02 1-266) MFKNQYDTDTTTWSPTGRLFQVEYANEAVNNGSAAVGVKGADYVVLTALKRNPVSGLSSYQEKAFKLDEHVGMAISGLVADGRALSRFLRTECMNYRYMHDSDAPLVMLADMVGAKHQRHIQFAGKRPFGVGLLIAGYDRQGPRLYQTVPSGDVFDFKATAMGLRSQAARTYLERHFRGFPACDLDELVMHALRALGAATSGGVELNIKNTTIAIVGKGTPFTILTEEEARKYLDGFKTRPEDIPAVADNEEDDDELHEQPPDVEE | – | – | – | binding [4]: binds |
| Aspartyl aminopeptidase (enzyme, UniProt Q57V45 1-451) MLPLDSPPVTQLAKEFVNFINEACTPFHAVEVLSSWLSNAGYQRLKEGETWPKLTNGYRYFITRNDSSLVAFSVGGRFVAENGLKIVGAHTDSPNLALKPRTLAGRSDYQGVAVQCYGGGLWHTWFDRDLTVAGRVIISSSKLVKRLVKVNKPIMRIPTLAIHLQSVEERNAFGPNKEKHLVPVIATTLSHTPNGDVSEHHNSQLLILLAESLGCRPSEIVDYDLSVVDTQDAVVGGANDEFIYAPRLDNLISCFCGVKALLESDKTLEEENMIRMVCLFDNEEVGSSTSQGAGGSLVPDVIEYISASGGLRAQLVANSFLMSVDGAHAVHPNYQDKHEEKHRPLIHRGPVIKYNANMRYATNGVTAAIVKAIAKRASVPIQEFCVKNDSPCGSTIGPILSSLSGIQTVDLGNPMLSMHSIREMCGTADLLHLKNLLEAFFNHYTRDMVTS | – | – | – | binding [4]: binds |
| Transaldolase (enzyme, UniProt Q57X22 1-332) MNQLESLKKHTCVVIDTADFSLLKEFSAEDATTNPSLVLAGSQVPQHAHLVNSAVEFARSNVSRLRDGLLSSADDERAQLLELAVDKLTVSFGVEILKAIPGRVSSEVDARLSYDADKMVKKAQHIVQLYAEAGVPKERLYIKLASTWEGIRAAERLEREGINCNLTLLFSFDQAVACAQAGVALISPFVGRVLDWYKAKYPEQADTFIGAQDPGVIAVTKIYNYYKRHGYKTVVMGASFRNTGEVLELAGCDKLTISPKLLQELASTPGEVVRKLDPARLTQSIPKLSELTRPESLFERETNNMAVEKLEEGIRNFAKDTEKLEALIATLL | – | – | – | binding [4]: binds |
| Sterol 24-c-methyltransferase (enzyme, UniProt Q4FKJ2 1-359) MSAGSRGPLSLLIARERDANGVNGDVNATAGRLRDRYDGKGASASERRQDATSLTNEYYDIVTDFYEYGWGQNFHFAPRYMNETFYESLARYEYFLAYHAQFKPTDTVLDVGCGIGGPARNMVRFTSCNVMGVNNNEYQINRARQHDSRYGMSGKINYTKTDFCNMCFGDNEFDGAYAIEATCHSESKVKCYSEVFRAIKPGAYFMLYEWCLTDLYDPANEEHQRVRHGIELGDGLPELDTMRQVVAAVKAAGFVVEESFDMAERFESGEPKSVPWYEPLQGSYTSLSGLRATPAGRWLTSVTCRLLEAVRLAPAGTCKATEILEEGAVNLVKGGELGIFTPSFFVKARKPRLGEELSC | – | – | – | binding [4]: binds |
| Peptidyl-prolyl cis-trans isomerase PIN1 (enzyme, UniProt Q57YG1 1-115) MSEKLRAAHLLVKFSGSRNPVSRRTGDSTADVTYEDAIKELQKWSQRIASGEVSFEEAASQRSDCGSYASGGDLGFFSSGEMMKPFEDAVRALKIGDISPIVQTDSGLHIIKRLA | – | – | – | binding [4]: binds |
| Uncharacterized protein, conserved Tb927.7.4530 (protein, UniProt Q57X69 1-696) MPRIHIFENCGCSSGDGFIKAPSSGMWQCTLPSNAEQSPRVIAKKGRNGGHEILVKHTGLTGASGICPFVVESYDCGLTNPRGPQPCAQLVPRFVSPQRLQLISTSSRFLCSFLLTTNVRSADEVDVISFQCICPGARTPSGTGIAFAAAAEATWVDVVSLLRGEQIKGRTSFNAARVWRLQWGVVEAAEVEGVSDLRAGSTLAWRVVEELPLKGLVEDAVSRGGGTLQVAIAGARRKEECRKTAAASPRAESGSNKREPAAKAADADIPRFTPAAHVISADAEPPTLQPKLKRQREGESDPSSPRNLTVEFALAQEMDAKGAVGELRGGKGTDGTMSAGLVAPQRSGKRKPTYAEVLMRSEQPTDTARVAGPKVLVLREWRQRLGELRVEVGYVNNEDGILSLAKGWLRETGKESVGKSVKMVTTLVSASLRELLCGAHLNVAVQCRLSRCKKSDELASLRKCVDIAVVLGKEVDKLPQDTSVGLQFSKYILKLRLLRHRCFATVLMDKTVSRPLFVEALRLCRRLLRLLKEENIASTNSNVCDKDSDACSRQISLGVYTAALAAMELSLFTPENNKVQNGITLIAGELFLWLCNSKCEERDVPASLLACLESMVDEGSGLHQGGARVLSELLSSLESPTAILACSERCSNTVELCCGVVRDVANSAAFDQQFARTGALLRRVRTLGGKTNEKNG | – | – | – | binding [4]: binds |

Second part, led by results:

| binding [1] | binding [2] | binding [3] | Molecule | further results |
| --- | --- | --- | --- | --- |
| – | binds | – | 60S acidic ribosomal protein P2 (Tb927.6.5120) (from UniProt Q586I4) | – |
| – | binds | – | 60S ribosomal protein L9 (from UniProt Q38CD0) | – |
| – | binds | – | 60S ribosomal protein L17 (from UniProt Q385T6) | – |
| binds | binds | – | ADP-ribosylation factor-like protein 3A (from UniProt Q57XJ5) | – |
| – | – | binds | ATP synthase F1 subunit p18, mitochondrial (from UniProt Q57ZP0) | – |
| binds | – | – | Adenylate kinase (Tb927.10.2530) (from UniProt Q38BZ2) (enzyme) | – |
| – | – | binds | Adenylate kinase (Tb927.10.5760) (from UniProt Q38B28) (enzyme) | – |
| – | – | binds | Cytochrome b5 (from UniProt Q382H2) | – |
| – | – | binds | DUFF667 (from UniProt Q38C25) | – |
| binds | binds | binds | Mitochondrial ATP synthase subunit (from UniProt Q57VT0) | – |
| – | – | binds | Protein disulfide isomerase (from UniProt Q57WS0) (enzyme) | – |
| binds | binds | binds | Ribose 5-phosphate isomerase (from UniProt Q384D1) (enzyme) | – |
| binds | binds | binds | Thioredoxin-like (from UniProt Q57X68) | – |
| – | binds | – | Valosin-containing protein, CDC48 (from UniProt Q38B27) | – |
